From publication doi:10.1101/2025.10.13.682107, “Oxidative stress sensing by the translation elongation machinery promotes production of detoxifying selenoproteins” (bioRxiv, 2025)
Results are given in words; binding and its absence hold for the method and conditions named. For some of these results: Binding seen in cells or lysates may run through a third protein. Some binding calls cover weakened binding; strength is not graded here.

Protein sequences, listed by entry. Tags and fused reporters are not part of them.
UniProt P26641: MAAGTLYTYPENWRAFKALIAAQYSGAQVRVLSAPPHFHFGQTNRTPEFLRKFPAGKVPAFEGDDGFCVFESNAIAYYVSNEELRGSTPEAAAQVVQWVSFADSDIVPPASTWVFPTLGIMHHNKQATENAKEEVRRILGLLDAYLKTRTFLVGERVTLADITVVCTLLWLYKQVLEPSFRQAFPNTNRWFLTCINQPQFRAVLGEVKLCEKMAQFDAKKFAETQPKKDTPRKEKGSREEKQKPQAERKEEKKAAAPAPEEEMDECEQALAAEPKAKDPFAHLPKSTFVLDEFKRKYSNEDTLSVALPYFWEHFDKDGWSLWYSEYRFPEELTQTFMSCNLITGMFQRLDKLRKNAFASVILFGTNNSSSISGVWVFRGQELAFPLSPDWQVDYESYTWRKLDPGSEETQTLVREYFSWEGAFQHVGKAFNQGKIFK

Columns and labels:
[1] = biological target: 3XFLAG-tagged EEF1D, wild type (human (cDNA from HCT116)) (UniProt P29692); test: co-IP; 3XFLAG immunoprecipitation (FLAG-M2 antibody on Protein G Dynabeads) from HEK293T lysate, 2 h at 4 °C; Co-IP lysis buffer with 0.5% Triton X-100, 150 mM KOAc, pH 7.4
[2] = biological target: endogenously Strep-tagged EEF1G (human (endogenous in HEK293T)) (UniProt P26641); test: pull-down; StreptactinXT affinity purification of endogenous Twin-Strep-tagged EEF1G from HEK293T lysate, 2 h at 4 °C; eluted with 20 mM biotin
[3] = biological target: EEF1G (eukaryotic elongation factor 1 subunit gamma), endogenous (human (endogenous in HEK293T)) (UniProt P26641); test: pull-down; Glutathione Sepharose 4B incubated with HEK293T lysate, 2 h at 4 °C; eluted with 10 mM reduced glutathione; recovered proteins seen by Coomassie staining and western blot; EEF1G held by its ligand glutathione
[4] = biological target: endogenously Strep-tagged EEF1G (human (endogenous in HEK293T)) (UniProt P26641); test: pull-down; strep-EEF1G pulldown from HEK293T cells in the presence of 1 mM reduced glutathione (GSH); western blot
[5] = biological target: endogenously Strep-tagged EEF1G (human (endogenous in HEK293T)) (UniProt P26641); test: condition: only with 1 mM oxidized glutathione (GSSG); mass photometry; purified EEF1H (co-purified from HEK293T through strep-EEF1G) incubated with 1 mM oxidized glutathione (GSSG) before measurement

Row | binding [1] | binding [2] | binding [3] | binding [4] | binding [5] | Molecule
1 | binds |  |  |  |  | EEF1G (eukaryotic elongation factor 1 subunit gamma), endogenous (from UniProt P26641 1-437)
2 |  | binds |  |  |  | valine tRNA synthase (VARS), endogenous (enzyme, human (endogenous in HEK293T), UniProt P26640 1-1264, looked up, valine tRNA synthase (VARS), human, endogenous in HEK293T; source: endogenous, HEK293T lysate) MSTLYVSPHPDAFPSLRALIAARYGEAGEGPGWGGAHPRICLQPPPTSRTPFPPPRLPALEQGPGGLWVWGATAVAQLLWPAGLGGPGGSRAAVLVQQWVSYADTELIPAACGATLPALGLRSSAQDPQAVLGALGRALSPLEEWLRLHTYLAGEAPTLADLAAVTALLLPFRYVLDPPARRIWNNVTRWFVTCVRQPEFRAVLGEVVLYSGARPLSHQPGPEAPALPKTAAQLKKEAKKREKLEKFQQKQKIQQQQPPPGEKKPKPEKREKRDPGVITYDLPTPPGEKKDVSGPMPDSYSPRYVEAAWYPWWEQQGFFKPEYGRPNVSAANPRGVFMMCIPPPNVTGSLHLGHALTNAIQDSLTRWHRMRGETTLWNPGCDHAGIATQVVVEKKLWREQGLSRHQLGREAFLQEVWKWKEEKGDRIYHQLKKLGSSLDWDRACFTMDPKLSAAVTEAFVRLHEEGIIYRSTRLVNWSCTLNSAISDIEVDKKELTGRTLLSVPGYKEKVEFGVLVSFAYKVQGSDSDEEVVVATTRIETMLGDVAVAVHPKDTRYQHLKGKNVIHPFLSRSLPIVFDEFVDMDFGTGAVKITPAHDQNDYEVGQRHGLEAISIMDSRGALINVPPPFLGLPRFEARKAVLVALKERGLFRGIEDNPMVVPLCNRSKDVVEPLLRPQWYVRCGEMAQAASAAVTRGDLRILPEAHQRTWHAWMDNIREWCISRQLWWGHRIPAYFVTVSDPAVPPGEDPDGRYWVSGRNEAEAREKAAKEFGVSPDKISLQQDEDVLDTWFSSGLFPLSILGWPNQSEDLSVFYPGTLLETGHDILFFWVARMVMLGLKLTGRLPFREVYLHAIVRDAHGRKMSKSLGNVIDPLDVIYGISLQGLHNQLLNSNLDPSEVEKAKEGQKADFPAGIPECGTDALRFGLCAYMSQGRDINLDVNRILGYRHFCNKLWNATKFALRGLGKGFVPSPTSQPGGHESLVDRWIRSRLTEAVRLSNQGFQAYDFPAVTTAQYSFWLYELCDVYLECLKPVLNGVDQVAAECARQTLYTCLDVGLRLLSPFMPFVTEELFQRLPRRMPQAPPSLCVTPYPEPSECSWKDPEAEAALELALSITRAVRSLRADYNLTRIRPDCFLEVADEATGALASAVSGYVQALASAGVVAVLALGAPAPQGCAVALASDRCSIHLQLQGLVDPARELGKLQAKRVEAQRQAQRLRERRAASGYPVKVPLEVQEADEAKLQQTEAELRKVDEAIALFQKML

Second part, the molecule before the results:

Row | Molecule | binding [1] | binding [2] | binding [3] | binding [4] | binding [5]
3 | EEF1B, endogenous (natural protein, human (endogenous in HEK293T), UniProt P24534 1-225, looked up, EEF1B (guanine nucleotide exchange factor subunit of EEF1H), human, endogenous in HEK293T; source: endogenous, HEK293T lysate) MGFGDLKSPAGLQVLNDYLADKSYIEGYVPSQADVAVFEAVSSPPPADLCHALRWYNHIKSYEKEKASLPGVKKALGKYGPADVEDTTGSGATDSKDDDDIDLFGSDDEEESEEAKRLREERLAQYESKKAKKPALVAKSSILLDVKPWDDETDMAKLEECVRSIQADGLVWGSSKLVPVGYGIKKLQIQCVVEDDKVGTDMLEEQITAFEDYVQSMDVAAFNKI |  | binds | binds |  | 
4 | EEF1D, endogenous (natural protein, human (endogenous in HEK293T), UniProt P29692 1-281, looked up, EEF1D (guanine nucleotide exchange factor subunit of EEF1H), human, endogenous in HEK293T; source: endogenous, HEK293T lysate) MATNFLAHEKIWFDKFKYDDAERRFYEQMNGPVAGASRQENGASVILRDIARARENIQKSLAGSSGPGASSGTSGDHGELVVRIASLEVENQSLRGVVQELQQAISKLEARLNVLEKSSPGHRATAPQTQHVSPMRQVEPPAKKPATPAEDDEDDDIDLFGSDNEEEDKEAAQLREERLRQYAEKKAKKPALVAKSSILLDVKPWDDETDMAQLEACVRSIQLDGLVWGASKLVPVGYGIRKLQIQCVVEDDKVGTDLLEEEITKFEEHVQSVDIAAFNKI |  | binds |  | binds | no binding
